Assay [1] has as its target T1, Discoidin domain receptor 1 (mouse (endogenous in primary VSMCs)) (UniProt Q03146).
T1 sequence: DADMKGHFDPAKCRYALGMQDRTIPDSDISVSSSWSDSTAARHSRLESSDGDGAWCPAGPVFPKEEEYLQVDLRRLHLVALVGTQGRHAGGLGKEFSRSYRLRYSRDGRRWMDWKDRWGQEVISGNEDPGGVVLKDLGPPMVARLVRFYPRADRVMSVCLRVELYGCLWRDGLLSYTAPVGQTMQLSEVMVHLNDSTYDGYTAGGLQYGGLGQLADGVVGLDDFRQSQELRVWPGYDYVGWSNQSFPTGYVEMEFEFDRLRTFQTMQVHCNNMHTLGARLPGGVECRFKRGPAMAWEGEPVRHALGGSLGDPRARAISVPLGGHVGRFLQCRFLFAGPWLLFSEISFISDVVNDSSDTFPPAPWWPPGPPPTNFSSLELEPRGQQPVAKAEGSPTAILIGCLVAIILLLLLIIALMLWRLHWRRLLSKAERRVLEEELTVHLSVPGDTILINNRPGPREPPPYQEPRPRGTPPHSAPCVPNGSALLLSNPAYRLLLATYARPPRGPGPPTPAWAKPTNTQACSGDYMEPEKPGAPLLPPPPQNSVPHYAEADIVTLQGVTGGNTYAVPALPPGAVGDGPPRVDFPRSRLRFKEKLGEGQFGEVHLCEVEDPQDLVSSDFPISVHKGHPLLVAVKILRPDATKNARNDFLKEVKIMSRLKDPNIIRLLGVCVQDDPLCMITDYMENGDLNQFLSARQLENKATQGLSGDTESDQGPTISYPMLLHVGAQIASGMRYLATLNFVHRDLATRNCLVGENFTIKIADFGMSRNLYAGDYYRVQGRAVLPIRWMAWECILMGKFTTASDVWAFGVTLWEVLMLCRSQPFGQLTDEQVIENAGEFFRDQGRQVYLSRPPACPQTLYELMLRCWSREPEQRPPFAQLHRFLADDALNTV
Description: co-IP; lysates of serum-starved primary mouse DDR1+/+ and DDR1-/- VSMCs (1% Triton lysis buffer, 20 mM Tris-HCl pH 7.5, 150 mM NaCl); anti-N-cadherin (ab18203) or anti-DDR1 (D1G6) antibody overnight at 4°C, Protein A agarose beads, three washes, western blot.

Amino acid sequences for entries named in this document (tags omitted). Residues count along the entry.
UniProt P15116, residues 160-906: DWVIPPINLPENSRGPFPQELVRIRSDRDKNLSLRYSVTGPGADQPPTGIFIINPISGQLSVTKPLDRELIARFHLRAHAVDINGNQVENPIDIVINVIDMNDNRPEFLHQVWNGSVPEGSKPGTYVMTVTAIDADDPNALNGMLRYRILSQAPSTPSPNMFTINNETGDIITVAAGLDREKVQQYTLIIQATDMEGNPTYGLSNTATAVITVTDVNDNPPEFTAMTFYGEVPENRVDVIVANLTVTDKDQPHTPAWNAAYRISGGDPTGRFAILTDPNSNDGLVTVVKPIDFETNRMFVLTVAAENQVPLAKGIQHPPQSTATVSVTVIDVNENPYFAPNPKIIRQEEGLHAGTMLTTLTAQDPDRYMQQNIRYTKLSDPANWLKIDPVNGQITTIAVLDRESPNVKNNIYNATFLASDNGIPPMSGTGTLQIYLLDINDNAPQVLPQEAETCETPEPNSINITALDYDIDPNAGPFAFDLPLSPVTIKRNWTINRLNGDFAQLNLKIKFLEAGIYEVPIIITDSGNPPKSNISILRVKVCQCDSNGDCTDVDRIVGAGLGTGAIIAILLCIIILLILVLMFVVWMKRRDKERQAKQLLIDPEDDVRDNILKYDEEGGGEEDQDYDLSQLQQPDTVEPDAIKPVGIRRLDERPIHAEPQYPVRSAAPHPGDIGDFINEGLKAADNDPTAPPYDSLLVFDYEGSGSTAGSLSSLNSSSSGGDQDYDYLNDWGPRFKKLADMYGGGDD
UniProt Q02248: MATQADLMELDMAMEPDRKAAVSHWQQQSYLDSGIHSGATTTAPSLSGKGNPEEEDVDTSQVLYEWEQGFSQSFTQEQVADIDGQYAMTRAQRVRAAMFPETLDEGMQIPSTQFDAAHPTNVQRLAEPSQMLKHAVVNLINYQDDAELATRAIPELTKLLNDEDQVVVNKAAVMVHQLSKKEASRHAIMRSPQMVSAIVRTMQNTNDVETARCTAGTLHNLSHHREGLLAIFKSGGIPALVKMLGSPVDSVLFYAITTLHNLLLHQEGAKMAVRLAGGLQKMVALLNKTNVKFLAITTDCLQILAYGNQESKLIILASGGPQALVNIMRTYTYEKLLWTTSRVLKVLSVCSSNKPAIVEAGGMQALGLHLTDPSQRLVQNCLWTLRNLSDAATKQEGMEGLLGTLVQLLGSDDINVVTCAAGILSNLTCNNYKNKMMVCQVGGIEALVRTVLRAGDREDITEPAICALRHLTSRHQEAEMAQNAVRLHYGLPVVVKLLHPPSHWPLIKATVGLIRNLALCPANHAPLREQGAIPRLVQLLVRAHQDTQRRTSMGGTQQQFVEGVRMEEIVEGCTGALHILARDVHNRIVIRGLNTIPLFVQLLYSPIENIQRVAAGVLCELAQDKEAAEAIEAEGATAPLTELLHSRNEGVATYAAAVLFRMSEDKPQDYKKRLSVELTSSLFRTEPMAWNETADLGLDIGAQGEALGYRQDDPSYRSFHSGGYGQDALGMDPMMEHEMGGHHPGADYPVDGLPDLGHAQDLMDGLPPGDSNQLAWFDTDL

Assay [2] has as its target N-cadherin (mouse (endogenous in primary VSMCs)) (UniProt P15116). The description is as above.

Results are given in words; binding and its absence hold for the method and conditions named. Binding seen in cells or lysates may run through a third protein. Some binding calls cover weakened binding; strength is not graded here.

As for “N-cadherin (from UniProt P15116 160-906)”, the binding entry in assay [1] is “binds”. Take β-catenin (from UniProt Q02248 1-781): the binding result in assay [2] was “binds”.

B1: Discoidin domain receptor 1 (receptor, UniProt Q03146 20-911)
chain: DADMKGHFDPAKCRYALGMQDRTIPDSDISVSSSWSDSTAARHSRLESSDGDGAWCPAGPVFPKEEEYLQVDLRRLHLVALVGTQGRHAGGLGKEFSRSYRLRYSRDGRRWMDWKDRWGQEVISGNEDPGGVVLKDLGPPMVARLVRFYPRADRVMSVCLRVELYGCLWRDGLLSYTAPVGQTMQLSEVMVHLNDSTYDGYTAGGLQYGGLGQLADGVVGLDDFRQSQELRVWPGYDYVGWSNQSFPTGYVEMEFEFDRLRTFQTMQVHCNNMHTLGARLPGGVECRFKRGPAMAWEGEPVRHALGGSLGDPRARAISVPLGGHVGRFLQCRFLFAGPWLLFSEISFISDVVNDSSDTFPPAPWWPPGPPPTNFSSLELEPRGQQPVAKAEGSPTAILIGCLVAIILLLLLIIALMLWRLHWRRLLSKAERRVLEEELTVHLSVPGDTILINNRPGPREPPPYQEPRPRGTPPHSAPCVPNGSALLLSNPAYRLLLATYARPPRGPGPPTPAWAKPTNTQACSGDYMEPEKPGAPLLPPPPQNSVPHYAEADIVTLQGVTGGNTYAVPALPPGAVGDGPPRVDFPRSRLRFKEKLGEGQFGEVHLCEVEDPQDLVSSDFPISVHKGHPLLVAVKILRPDATKNARNDFLKEVKIMSRLKDPNIIRLLGVCVQDDPLCMITDYMENGDLNQFLSARQLENKATQGLSGDTESDQGPTISYPMLLHVGAQIASGMRYLATLNFVHRDLATRNCLVGENFTIKIADFGMSRNLYAGDYYRVQGRAVLPIRWMAWECILMGKFTTASDVWAFGVTLWEVLMLCRSQPFGQLTDEQVIENAGEFFRDQGRQVYLSRPPACPQTLYELMLRCWSREPEQRPPFAQLHRFLADDALNTV
For the molecule B1, the binding entry in assay [2] is given as “binds”.

B2: p120-catenin (protein, UniProt P30999 1-938)
chain: MDDSEVESTASILASVKEQEAQFEKLTRALEEERRHVSAQLERVRVSPQDANSLMANGTLTRRHQNGRFVGDADLERQKFSDLKLNGPQDHNHLLYSTIPRMQEPGQIVETYTEEDPEGAMSVVSVETTDDGTTRRTETTVKKVVKTMTTRTVQPVPMGPDGLPVDASAVSNNYIQTLGRDFRKNGNGGPGPYVGQAGTATLPRNFHYPPDGYGRHYEDGYPGGSDNYGSLSRVTRIEERYRPSMEGYRAPSRQDVYGPQPQVRVGGSSVDLHRFHPEPYGLEDDQRSMGYDDLDYGMMSDYGTARRTGTPSDPRRRLRSYEDMIGEEVPPDQYYWAPLAQHERGSLASLDSLRKGMPPPSNWRQPELPEVIAMLGFRLDAVKSNAAAYLQHLCYRNDKVKTDVRKLKGIPILVGLLDHPKKEVHLGACGALKNISFGRDQDNKIAIKNCDGVPALVRLLRKARDMDLTEVITGTLWNLSSHDSIKMEIVDHALHALTDEVIIPHSGWEREPNEDCKPRHIEWESVLTNTAGCLRNVSSERSEARRKLRECDGLVDALIFIVQAEIGQKDSDSKLVENCVCLLRNLSYQVHREIPQAERYQEALPTVANSTGPHAASCFGAKKGKDEWFSRGKKPTEDPANDTVDFPKRTSPARGYELLFQPEVVRIYISLLKESKTPAILEASAGAIQNLCAGRWTYGRYIRSALRQEKALSAIAELLTSEHERVVKAASGALRNLAVDARNKELIGKHAIPNLVKNLPGGQQNSSWNFSEDTVVSILNTINEVIAENLEAAKKLRETQGIEKLVLINKSGNRSEKEVRAAALVLQTIWGYKELRKPLEKEGWKKSDFQVNLNNASRSQSSHSYDDSTLPLIDRNQKSDKKPDREEIPMSNMGSNTKSLDNNYSTLNERGDHNRTLDRSGDLGDMEPLKGAPLMQKI
For B2, the binding entry in assay [2] is on record as “binds”.
